Source: ChEMBL document CHEMBL3988442, “University of Dundee, Small-Polar-MMV Screening Library” (2021).

The chains behind the UniProt entries cited, without tags or fusion partners.
UniProt E9BF75, entry or part of it: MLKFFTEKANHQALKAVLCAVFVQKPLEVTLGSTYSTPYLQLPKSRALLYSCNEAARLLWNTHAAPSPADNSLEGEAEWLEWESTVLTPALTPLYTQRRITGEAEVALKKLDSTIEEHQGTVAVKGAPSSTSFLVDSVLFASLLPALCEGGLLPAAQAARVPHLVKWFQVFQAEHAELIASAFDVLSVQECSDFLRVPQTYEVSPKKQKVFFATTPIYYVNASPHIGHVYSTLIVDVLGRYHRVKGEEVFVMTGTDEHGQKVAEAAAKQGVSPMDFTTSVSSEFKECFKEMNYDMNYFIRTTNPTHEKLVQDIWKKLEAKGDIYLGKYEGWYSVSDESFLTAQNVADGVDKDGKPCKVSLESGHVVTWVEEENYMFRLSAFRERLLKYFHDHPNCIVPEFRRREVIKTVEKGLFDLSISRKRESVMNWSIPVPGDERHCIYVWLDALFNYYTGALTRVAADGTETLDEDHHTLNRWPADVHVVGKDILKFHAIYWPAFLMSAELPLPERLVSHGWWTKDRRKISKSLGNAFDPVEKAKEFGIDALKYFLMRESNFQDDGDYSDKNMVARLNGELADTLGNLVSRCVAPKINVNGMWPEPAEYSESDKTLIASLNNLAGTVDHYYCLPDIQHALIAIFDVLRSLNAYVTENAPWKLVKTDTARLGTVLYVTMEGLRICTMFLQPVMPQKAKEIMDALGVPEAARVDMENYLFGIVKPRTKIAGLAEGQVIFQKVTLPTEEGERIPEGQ

A: 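Methionyl-tRNA synthetase (putative), Leishmania donovani (UniProt E9BF75). Primary screen of methionyl-tRNA synthetase; the read-out is not stated. The test concentration is not given. Values are per cent inhibition. Size under these conditions: about 68,000 compounds, about 24 of them at 50% or above in at least one test.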
B: 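Assay on Mycobacterium tuberculosis, filed only as a heat shock assay from Cornell; the read-out is not stated. The concentration is filed as 10 mM, unlikely as a test dose, so the dose is not known. The record gives no direction; compounds that gave an IC50 in retests scored well above the rest, so higher reads as stronger inhibition. About 69,000 compounds were tested under these conditions; 1.4% (about 930) showed 50% or more at least once.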

Results are percentages, as filed. The controls that fix the scale are not given in the record; negative values are as filed. The compounds are a random part of those screened. A dash means the value is not listed here; it may have been measured.

SMILES,A,B
COc1ccc(OC)c(CCNC(=O)CCC2CCCO2)c1 (stereo not given),15.05%,-19.76%
O=C(O)C(F)(F)F.O=C(O)C(F)(F)F.[H][C@@]12CCCO[C@]1([H])[C@H](N(C)C(C)C)CN(Cc1cc(C)on1)C2,-,-43%
CC(O)CN1CCC(CNCc2ccccc2OC(F)(F)F)CC1 (stereo not given),8.589%,-2.471%
O=C1COc2ccc(S(=O)(=O)NCC3CCCO3)c3c2N1CCC3 (stereo not given),8.696%,-20.83%
[H][C@@]12C[C@@H](Oc3cccnc3)CN1CCN(Cc1cnn(C)c1)C2,-,-1.743%
Cc1noc([C@@]23CCO[C@@H]2CCN(C(=O)c2cc(C)c(C)s2)C3)n1,8.143%,-
COCC1c2c(cnn2CC2CC2)CCN1Cc1ccsc1 (stereo not given),9.041%,-
Cc1nc(C(Cc2ccsc2)NC(=O)CN2CCOCC2)sc1C (stereo not given),3.438%,-3.287%
Cc1cncc(C(=O)N2CCCC(O)(CN(C)C)CC2)c1 (stereo not given),3.359%,-12.21%
O=S(=O)(c1cccnc1)N1CCCC1COc1ccccc1 (stereo not given),5.541%,-22.03%
CN1CCN(Cc2nnc(C3CCN(CC4CC4)CC3)n2C)CC1,14.29%,-4.083%
Cc1nc(C)c(CNC(=O)NC2CC(C)(C)OC2(C)C)s1 (stereo not given),-3.693%,-7.55%
Cc1nc(N2CCC(C(O)c3nccn3C)CC2)c2cccnc2n1 (stereo not given),2.135%,-14.62%
Cc1cc(C)n(CCCN(C)c2cc(N(C)C)ncn2)n1,8.672%,-23.95%
COc1ccc(NC(=O)Cc2c(C)nn(C)c2C)cc1F,1.955%,-1.454%
O[C@H]1CN(Cc2cc3ccccc3o2)CC[C@@]12CCCO2,18.06%,-1.964%
O=C(NCCNc1ccccn1)NC1CCOC2(CCCCC2)C1 (stereo not given),14.4%,-2.018%
O=C(c1ccco1)N1CCOCC2(C1)CN(c1ccccn1)C(=O)CO2 (stereo not given),4.658%,-26.32%
CC(C)(O)CCc1cccc(C(=O)NCCC2CCOC2)c1 (stereo not given),5.882%,-7.966%
CC(Cn1ccnc1)NC(=O)N1CCN(Cc2cccnc2)CC1 (stereo not given),20.41%,5.224%
O=C(C1CC1)N1CC2(CCNCC2)c2cc(F)ccc21,9.444%,-
[H][C@]12CN(S(=O)(=O)c3ccc(C(=O)NCc4ccc(C)o4)cc3)[C@]([H])(CN1)C2,-,18.86%
OCCN1CCN(CC(O)c2ccc(OC(F)(F)F)cc2)CC1 (stereo not given),22.39%,-14.77%
Cc1nc(CN2CCOCC3(CCN(c4ncccn4)C3)C2)cs1 (stereo not given),16.19%,-
Cc1ccc(N2CCO[C@H]3CN(Cc4cccs4)C[C@H]32)nn1,0.6667%,-
Cl.O=C(c1ccccc1F)N1CC2(CCNCC2)c2cc(Cl)ccc21,-,-1.335%
Cc1noc(C(C)C)c1C(=O)NCCCOC(C)C,8.711%,13.45%
Cc1noc(CNC(=O)NCCOc2ccc(Cl)cc2)n1,4.11%,-15.95%
O[C@]12CCNC[C@H]1CN(c1nccc3ccccc13)CC2,3.553%,-
O=C(Nc1cccc(C(F)(F)F)c1)C1CC(=O)N(Cc2ccccn2)C1 (stereo not given),3.133%,7.958%
Cc1cccc(CN2C[C@@H]3OCCN(S(=O)(=O)N(C)C)[C@@H]3C2)n1,7.266%,-
CC(c1ccccc1)N1CCC(NC(=O)CCc2ccsc2)CC1 (stereo not given),14.29%,-0.06663%
CC1CCCN(C(=O)CCNS(=O)(=O)c2cccnc2)C1 (stereo not given),8.179%,-20.59%
O=C(O)C(F)(F)F.O=C(c1ccccc1F)N1CCC2(CC1)CC(N1CCCC1)CO2 (stereo not given),-,22.62%
CN(C)c1nc2c(c(N3CCC(O)CC3)n1)CN(CC(C)(C)C)CC2,7.117%,41.8%
O=C(NCCNc1ncccn1)N1CCSCC1,13.73%,-1.278%
COc1ccccc1C1(CNc2snc(Cl)c2C#N)CCOCC1,10.89%,12.9%
CC(C)(C)OC(=O)N[C@H]1CCN(C(=O)c2cc(Cl)c[nH]2)C1,9.589%,-40%
CCOc1ccc(CN2CCCC(c3nn(C)c(=O)n3CC)C2)cn1 (stereo not given),7.829%,3.885%
CCOCC(=O)N1C[C@H]2CCC[C@@]2(COC)C1,7.143%,-
O=C(O)C(F)(F)F.[H][C@@]12CN(Cc3nccs3)C[C@]1([H])C(=O)N(c1ccsc1)C2,-,28.97%
c1cc(CN2C[C@@H]3OCCN(CC4CCCO4)[C@@H]3C2)ccn1 (stereo not given in full),10.67%,-
Cc1nn(C)cc1CC(C#N)C(=O)Nc1cccc(O)c1 (stereo not given),19.3%,-15.16%
Cc1ncc2c(c1CNC(=O)C1(C)CC1)CCNC2,8.462%,0.9355%
COc1cccc([C@@H]2CCN(Cc3ccc4ccccc4n3)C[C@H]2O)c1,19.26%,19.69%
Cc1c(C(=O)NCCC2CN(C)CCO2)n(C)c2c(C)cccc12 (stereo not given),14.37%,5.713%
Cc1cn[nH]c1C1COCCN1Cc1c[nH]cn1 (stereo not given),9.884%,-2.608%
COc1ccc([C@@H](C)n2ccnc2-c2cc3n(n2)CCCNC3)cc1,8.075%,-14.73%
Cc1ccc(CN(C)C(=O)CN2CCCC2c2cnn(C)c2)cc1 (stereo not given),19.73%,-15.31%
COCCC(=O)N1CCC(Nc2ncc(Br)cn2)CC1,8.437%,16.99%
CCCN1CC(NC(=O)Nc2nc(C)n(C(C)C)n2)CC1=O (stereo not given),13.92%,2.816%
Fc1cccc(CN2CCC3(CCN3c3ncccn3)C2)c1.O=C(O)C(F)(F)F (stereo not given),-,30.67%
CCNc1cc2c(nn1)CCN(C(=O)c1cccc(CSC)c1)C2,17.49%,-17.43%
O=C(CC1CC1)N1CCC2(COCc3cnc(-c4cccnc4)nc32)C1 (stereo not given),16.02%,4.182%
CC(C)n1cc(CN2CCCN(C(=O)CC3CCCO3)CC2)cn1 (stereo not given),18.33%,-13.95%
Cn1cc(CN2CCc3ncnc(N4CCCC4)c3CC2)cn1,16.26%,3.545%
CN(CC(=O)NCCC#N)C(c1ccccc1)c1ccc(F)cc1 (stereo not given),21.43%,-12.27%
CC(=O)Nc1nc(C2CCN(C(=O)c3cccnc3)CC2)cs1,14.29%,-6.1%

6 of the entries, repeated:

SMILES	A	B
COc1ccc(OC)c(CCNC(=O)CCC2CCCO2)c1 (stereo not given)	15.05%	-19.76%
Cc1cc(C)n(CCCN(C)c2cc(N(C)C)ncn2)n1	8.672%	-23.95%
CC(Cn1ccnc1)NC(=O)N1CCN(Cc2cccnc2)CC1 (stereo not given)	20.41%	5.224%
CN1CCN(Cc2nnc(C3CCN(CC4CC4)CC3)n2C)CC1	14.29%	-4.083%
O=C(NCCNc1ncccn1)N1CCSCC1	13.73%	-1.278%
O=C(O)C(F)(F)F.O=C(c1ccccc1F)N1CCC2(CC1)CC(N1CCCC1)CO2 (stereo not given)	-	22.62%